In publication PMC3854790, “CRIS—A Novel cAMP-Binding Protein Controlling Spermiogenesis and the Development of Flagellar Bending” (PLoS Genetics, 2013) one finds binding data, which are given here for 2 molecules.

This assay has as its target T1, CRIS (cyclic nucleotide receptor involved in sperm function) (mouse (endogenous in sperm precursor cells)) (UniProt Q9D5U8).
T1 sequence: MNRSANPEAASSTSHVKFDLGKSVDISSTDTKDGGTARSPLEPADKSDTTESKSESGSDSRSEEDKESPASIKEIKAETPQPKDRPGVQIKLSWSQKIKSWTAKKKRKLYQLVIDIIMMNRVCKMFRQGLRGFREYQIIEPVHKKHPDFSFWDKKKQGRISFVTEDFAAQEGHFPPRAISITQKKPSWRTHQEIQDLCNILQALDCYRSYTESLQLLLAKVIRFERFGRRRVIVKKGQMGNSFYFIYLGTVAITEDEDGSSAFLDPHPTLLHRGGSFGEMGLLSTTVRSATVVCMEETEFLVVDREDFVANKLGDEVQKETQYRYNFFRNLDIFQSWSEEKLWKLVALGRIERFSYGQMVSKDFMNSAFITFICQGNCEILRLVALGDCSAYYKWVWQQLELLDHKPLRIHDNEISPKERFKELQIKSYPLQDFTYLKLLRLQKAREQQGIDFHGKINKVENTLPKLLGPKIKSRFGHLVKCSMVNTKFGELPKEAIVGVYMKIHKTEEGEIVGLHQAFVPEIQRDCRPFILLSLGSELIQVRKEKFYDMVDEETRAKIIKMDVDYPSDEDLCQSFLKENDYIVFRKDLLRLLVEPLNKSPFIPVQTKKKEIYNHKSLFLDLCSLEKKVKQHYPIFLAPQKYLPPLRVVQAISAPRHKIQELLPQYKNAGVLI
The assay is described as follows: affinity purification with mass spectrometry; co-immunoprecipitation of endogenous CRIS from sperm precursor cells of wild-type mice; 500 µg total lysate on a column of monoclonal antibody 4B2 or 4E4 covalently coupled to Protein G, overnight at 4°C, washed four times with lysis buffer (10 mM Tris/HCl pH 7.6, 140 mM NaCl, 1 mM EDTA, 1% Triton-X 100), eluted in SDS sample buffer, SDS-PAGE, LC-MS/MS; cells of Cris-deficient mice as negative control.

No constants are given. Whether binding was seen depends on the method and setting. Binding seen in cells or lysates may run through a third protein. These calls come from enrichment with a bait or labelling near it, and not all partners need be listed.

B1: Tether containing UBX domain for GLUT4 (protein, UniProt Q8VBT9-1 1-550)
chain: MAAPAGGGGSAVSVLAPNGRRHTVKVTPSTVLLQVLEDTCRRQDFNPSEYDLKFQRTVLDLSLQWRFANLPNNAKLEMVPVSRSREGPENIVRIAFQLDDGSRLQDAFCSRQTLWELLSHFAQTRERLQQLGEKTPVCVYMRNEVTGRAALQNTTLQSLGLTGGSATIRFVIKQCDTAGKQESIAVRSKAPGSPVSSLSADQASSSTLLPLNSGEFSRGDLNHEGDANTSGTGLEGGPKPTDAQTKQSTSEPASAPFVPFSGGGQRLGGPSASLRPLTSPSANSSKSFSGPGGPSKPKKPKPGEEPQQEPEPPVDRDPVVYHPDLEDLLQPWPAEVPDEFFEVTVDDVRRRLAQLKSERKRLEEAPLVTKAFREAQMKEKLERYPKVALRVLFPDRYILQGFFRPSETVGDLRDFVRSHLGNPELSFYLFIAPPKMVLDDHTLTLFQANLFPAALVHFGAEEPTGLYLEPGLLEHTVSPSTADVLVARCMSRASGSPPLLPAPDPVSLESEPIAEDGALGPPEPIQGTAQPVKRSLGKVPKWLKLPASKR
For B1, the binding result is given as “binds”.

B2: DCC-interacting protein 13-alpha (protein, UniProt Q8K3H0 1-707)
chain: MPGIDKLPIEETLEDSPQTRSLLGVFEEDATAISNYMNQLYQAMHRIYDAQNELSAATHLTSKLLKEYEKQRFPLGGDDEVMSSTLQQFSKVIDELSSCHAVLSTQLADAMMFPISQFKERDLKEILTLKEVFQIASNDHDAAINRYSRLSKKRENDKVKYEVTEDVYTSRKKQHQTMMHYFCALNTLQYKKKIALLEPLLGYMQAQISFFKMGSENLNGQLEEFLANIGTSVQNVRREMDGDVETMQQTIEDLEVASDPLYLPDPDPTKFPINRNLTRKAGYLNARNKTGLVSSTWDRQFYFTQGGNLMSQARGDVAGGLAMDIDNCSVMAVDCEDRRYCFQITSFDGKKSSILQAESKKDHEEWICTINNISKQIYLSENPEETAARVNQSALEAVTPSPSFQQRHESLRPGGQSRPPTARTSSSGSLGSESTNLAALSLDSLVAPDTPIQFDIISPVCEDQPGQAKAFGQGGRRTNPFGESGGSTKSETEDSILHQLFIVRFLGSMEVKSDDHPDVVYETMRQILAARAIHNIFRMTESHLLVTCDCLKLIDPQTQVTRLTFPLPCVVLYATHQENKRLFGFVLRTSGGRSESNLSSVCYIFESNNEGEKICDSVGLAKQIALHAELDRRASEKQKEIERVKEKQQKELSKQKQIEKDLEEQSRLIAASSRPNQAGSEGQLVLSSSQSEESDLGEEGKKRESEA
B2: the binding entry was “binds”.
